Taken from: PubChem BioAssay AID1259308 (NCATS, 2017)

Assay: 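Knock-downs that increase output of a recombinant reporter protein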 (primary screen)
Cells: human HEK293 embryonic kidney cells stably expressing firefly luciferase (HEK-CMV-Luc2-Hygro)
Knock-down reagent: single siRNA against human genes, 0.8 pmol siRNA per well
Timing: 72 h
Measurement: 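Luciferase light (ONE-Glo) measured on one replicate plate set and viability (CellTiter-Glo) on the other, scaled to a negative control siRNA, with robust z-scores and luciferase per cell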
Reading the numbers: total luciferase, z-score: higher = more reporter protein produced
Active means: 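An siRNA counts as active if its total luciferase robust z-score exceeds 3; genes with two or more such siRNAs out of three were retested with fresh siRNAs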
Meaning of the calls: active = raised luciferase; inactive = no rise
This is one part, drawn at random, of about 59,000 reagents. About 1,510 of all reagents (2.6%) count as active. 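Calls use total luciferase alone and ignore viability, so some active siRNAs may act by altering cell number.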 The numbers tell different reagents against one gene apart. Further read-outs or replicates are left out here.

Silencing of COP1 (COP1 E3 ubiquitin ligase) #1 came out at: total luciferase, z-score 1.04; inactive.
COP1 (COP1 E3 ubiquitin ligase) #2 showed total luciferase, z-score 1.01; inactive.
COP1 (COP1 E3 ubiquitin ligase) #3 showed total luciferase, z-score -0.557; inactive.
After knock-down of OR9G4 (olfactory receptor family 9 subfamily G member 4) #1 the results were total luciferase, z-score -0.538; inactive.
OR9G4 (olfactory receptor family 9 subfamily G member 4) #2 showed total luciferase, z-score -2.35; inactive.
With knock-down of OR9G4 (olfactory receptor family 9 subfamily G member 4) #3 the results were total luciferase, z-score 0.226; inactive.

Sorted by “total luciferase, z-score” (lowest first): some entries from above
COP1 (COP1 E3 ubiquitin ligase) #3 — total luciferase, z-score: -0.557; outcome: inactive
COP1 (COP1 E3 ubiquitin ligase) #2 — total luciferase, z-score: 1.01; outcome: inactive

Continued:
NFYA (nuclear transcription factor Y subunit alpha) #1 scored total luciferase, z-score 1.07; inactive.
NFYA (nuclear transcription factor Y subunit alpha) #2 gave total luciferase, z-score 7.76; active.
With knock-down of NFYA (nuclear transcription factor Y subunit alpha) #3, the screen gave total luciferase, z-score 1.57; inactive.
Depletion of BRI3BP (BRI3 binding protein) #1 gave: total luciferase, z-score -0.195; inactive.
Knock-down of BRI3BP (BRI3 binding protein) #2 came out at: total luciferase, z-score 3.03; active.
With knock-down of BRI3BP (BRI3 binding protein) #3, the record shows total luciferase, z-score -0.619; inactive.
